This note sets out measurements from article PMC8520208.

Results are given in words; binding and its absence hold for the method and conditions named. In cells and extracts the contact can be indirect. Some binding calls cover weakened binding; strength is not graded here. Where a sequence is shown, tags or fusion partners need not be part of it.

The target of test [1] is T1, Flag-C2CD4A (C2 calcium dependent domain containing 4A), expressed in RKO cells (human) (UniProt Q8NCU7).
T1 sequence: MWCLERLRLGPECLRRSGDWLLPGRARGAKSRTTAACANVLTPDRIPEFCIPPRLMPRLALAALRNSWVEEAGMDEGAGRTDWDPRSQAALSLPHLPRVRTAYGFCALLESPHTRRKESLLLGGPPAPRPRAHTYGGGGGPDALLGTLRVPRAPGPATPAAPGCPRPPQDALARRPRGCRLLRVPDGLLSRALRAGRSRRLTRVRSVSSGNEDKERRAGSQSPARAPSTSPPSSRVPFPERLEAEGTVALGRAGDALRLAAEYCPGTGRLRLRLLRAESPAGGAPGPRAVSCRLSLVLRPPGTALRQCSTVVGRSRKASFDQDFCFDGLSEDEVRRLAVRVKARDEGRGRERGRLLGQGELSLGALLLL
Nature of the test: co-IP; lysates of RKO cells transfected with Flag-C2CD4A; immunoprecipitated with anti-IgG, anti-Flag or anti-p53 antibodies, Protein A+G agarose beads; western blot. On the technique in general: A western blot detects proteins with antibodies after separation by electrophoresis.

In test [2] the target is T2, Flag-C2CD4A (C2 calcium dependent domain containing 4A), expressed in 293T cells (human) (UniProt Q8NCU7).
T2 sequence: T1 sequence
In words: co-IP; 293 T cells co-transfected with Flag-C2CD4A and HA-p53; immunoprecipitated with anti-Flag or anti-HA antibody; western blot.

As for “p53 in RKO cells (from UniProt P04637 1-393)”, the binding entry in test [1] is “binds”.
HA-p53 (from UniProt P04637 1-393): the binding entry in test [2] is on record as “binds”.
